The record followed here is publication PMC4337610.

By UniProt entry, the sequences of proteins in these tests, tags left out. Residues count along the entry.
UniProt P0A6X3, 1-66: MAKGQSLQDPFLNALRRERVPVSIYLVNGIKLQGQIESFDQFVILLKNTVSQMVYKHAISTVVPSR

Construct, isoform or probe ends are uncertain for at least one entry. The direction of at least one scale is not stated here.

Series [1] has as its target Hfq wild-type (Escherichia coli) (UniProt P0A6X3). Briefly: BLI. To be noted: 1 uM RydC; BLI: 25 mM Tris pH 7.5, 50 mM NaCl, 50 mM KCl, 1 mM MgCl2, 1 mM DTT, 0-500 nM Hfq, temperature not stated; recombinant protein; residues 1-102; label: 5' biotin (GMP-biotin); probe letters rebuilt from the primers and the genome.
In the next series the target is Hfq66 (UniProt P0A6X3). Briefly: BLI. To be noted: 1 uM RydC; BLI: 25 mM Tris pH 7.5, 50 mM NaCl, 50 mM KCl, 1 mM MgCl2, 1 mM DTT, 0-500 nM Hfq, temperature not stated; recombinant protein; residues 1-66; label: 5' biotin (GMP-biotin); probe letters rebuilt from the primers and the genome; scale: fold lower affinity than without RydC.

As for “GGUUGUUUAUAUUACGAUAAUUAUUAGGCAUUAACGGGAACCGGAGCGUUCCCGAUUCACCAUGGAUGGCCUUUUCGGCAAGGGCUCCUCCCUUCCUCUGUUCUACGUCGGAUAACUGGCUCACGGAAUUGUCCGUGGG [cfa1]”, the binding signal (fold lower affinity than without RydC) in series [1] turned out to be 5. Besides, the binding signal with Hfq66 was 100.
